Laboratory results as given in PMC8433149.
No constants are given. Whether binding was seen depends on the method and setting. Binding seen in cells or lysates may run through a third protein. Here binding means that the protein was enriched with, or labelled near, the bait; the list need not be complete.

Molecular target: Engulfment and cell motility protein 1 (human (endogenous in MSC)), Q92556
Assay: co-IP + affinity purification with mass spectrometry; MSC protein extract (HC-MSC and AS-MSC) incubated with an anti-ELMO1 antibody (1:100) or IgG control at 4 °C overnight, protein G agarose beads for another 4 h; immunoprecipitants collected for LC-MS/MS and western blotting
Conditions: remark: other sources report otherwise

binding: binds
B1: ELMO2, Q96JJ3 1-720 (protein)
chain: MPPPSDIVKVAIEWPGANAQLLEIDQKRPLASIIKEVCDGWSLPNPEYYTLRYADGPQLYITEQTRSDIKNGTILQLAISPSRAARQLMERTQSSNMETRLDAMKELAKLSADVTFATEFINMDGIIVLTRLVESGTKLLSHYSEMLAFTLTAFLELMDHGIVSWDMVSITFIKQIAGYVSQPMVDVSILQRSLAILESMVLNSQSLYQKIAEEITVGQLISHLQVSNQEIQTYAIALINALFLKAPEDKRQDMANAFAQKHLRSIILNHVIRGNRPIKTEMAHQLYVLQVLTFNLLEERMMTKMDPNDQAQRDIIFELRRIAFDAESDPSNAPGSGTEKRKAMYTKDYKMLGFTNHINPAMDFTQTPPGMLALDNMLYLAKVHQDTYIRIVLENSSREDKHECPFGRSAIELTKMLCEILQVGELPNEGRNDYHPMFFTHDRAFEELFGICIQLLNKTWKEMRATAEDFNKVMQVVREQITRALPSKPNSLDQFKSKLRSLSYSEILRLRQSERMSQDDFQSPPIVELREKIQPEILELIKQQRLNRLCEGSSFRKIGNRRRQERFWYCRLALNHKVLHYGDLDDNPQGEVTFESLQEKIPVADIKAIVTGKDCPHMKEKSALKQNKEVLELAFSILYDPDETLNFIAPNKYEYCIWIDGLSALLGKDMSSELTKSDLDTLLSMEMKLRLLDLENIQIPEAPPPIPKEPSSYDFVYHYG
